According to PubChem BioAssay AID248 (DTP/NCI, 2004):
The list does not hold the whole screen: it gathers tests that were run many times, whatever their T/C, doses with no T/C, and many T/C values between a quarter and a half above the control. Other doses and runs of a compound stand elsewhere. T/C: endpoint of the treated group in % of that of the vehicle group. Some doses have a count of surviving animals in place of a T/C: the source holds a T/C of zero for them, seemingly a mark for toxic or unscored doses. Some doses without a T/C left all or most animals alive at the check, yet need not have been tolerated: survival well below the control is almost never listed, so the zero probably covers shortened survival too. Counts of survivors are from the toxicity check (mostly the fifth day) where no day follows; animals may have died later. Schedule codes are those of the source, taken here to give the interval after Q, in days (D) or hours (H), and the number of doses after X. Some entries were tested several times; the values are given in rising order. For survival time, this PubChem deposit counts one and a half times the control or more as active, and values a quarter to a half above the control carry no call in these data; other NCI protocols may use other cut-offs. Some schedules carry Z or #; the key to these is not given.

Tested on: L1210 leukemia ip in BDF1 mice, survival T/C
Experiment: NCI In Vivo Anticancer Drug Screen. Data for tumor model L1210 Leukemia (intraperitoneal) in B6D2F1 (BDF1) mice
Settings: T/C endpoint: mean survival time, higher T/C = longer survival
[1] = dose: 400.0 mg/kg/injection, schedule: Q04DX003 (ip), vehicle: saline
[2] = dose: 400.0 mg/kg/injection, schedule: Q04DX003 (ip), vehicle: Klucel (hydroxypropylcellulose) (HPC)
[3] = dose: 200.0 mg/kg/injection, schedule: Q01DX001 (ip), vehicle: carboxymethylcellulose (CMC)
[4] = dose: 400.0 mg/kg/injection, schedule: Q01DX001 (ip), vehicle: carboxymethylcellulose (CMC)

CNC(=O)c1ccc(NC(=O)Nc2ccc(C3=NCCN3)cc2)cc1NC(=O)Nc1ccc(C2=NCCN2)cc1
T/C (dose: 8.0 mg/kg/injection, schedule: Q01DX Z (ip), vehicle: carboxymethylcellulose (CMC)): 130 % of control
T/C (dose: 13.0 mg/kg/injection, schedule: Q01DX Z (ip), vehicle: carboxymethylcellulose (CMC)): 142 % of control
T/C (dose: 136.0 mg/kg/injection, schedule: Q01DX Z (ip), vehicle: carboxymethylcellulose (CMC)): 127 % of control

Cn1cc(C2=CC(=O)C=CC2=O)c2ccccc21
survivor count (dose: 50.0 mg/kg/injection, schedule: Q01DX001 (ip), vehicle: saline): 2 of 4
survivor count (dose: 80.0 mg/kg/injection, schedule: Q01DX001 (ip), vehicle: saline): 0 of 4
survivor count (dose: 100.0 mg/kg/injection, schedule: Q01DX001 (ip), vehicle: saline): 0 of 4
survivor count (dose: 200.0 mg/kg/injection, schedule: Q01DX001 (ip), vehicle: saline): 0 of 4
survivor count (dose: 400.0 mg/kg/injection, schedule: Q01DX001 (ip), vehicle: saline): 0 of 4

NC(=O)C(O)C(O)C(O)C(O)C(N)=O (centres undefined)
survivor count [1]: 0 of 6

CC1(C)N=C(N)N=C(N)N1c1cccc(Oc2ccc(N)cc2)c1
survivor count (dose: 100.0 mg/kg/injection, schedule: Q04DX003 (ip), vehicle: Klucel (hydroxypropylcellulose) (HPC)): 1 of 6 and 3 of 6
survivor count (dose: 200.0 mg/kg/injection, schedule: Q04DX003 (ip), vehicle: Klucel (hydroxypropylcellulose) (HPC)): 1 of 6
survivor count [2]: 0 of 6

O=C(O)C1C(c2ccccc2)=C(c2ccccc2)C(c2ccccc2)=C(c2ccccc2)C1C(=O)O (centres undefined)
survivor count [3]: 0 of 4
survivor count [4]: 1 of 4

CC(=O)OCN1C(=O)N(COC(C)=O)C(c2ccccc2)(c2ccccc2)C1=O
survivor count (dose: 400.0 mg/kg/injection, schedule: Q01DX009 (ip), vehicle: saline with Tween-80): 0 of 3

OC1CCN(c2c3ccccc3nc3ccccc23)CC1
survivor count (dose: 100.0 mg/kg/injection, schedule: Q04DX002 (ip), vehicle: saline): 0 of 3
survivor count (dose: 200.0 mg/kg/injection, schedule: Q04DX002 (ip), vehicle: saline): 0 of 3
survivor count (dose: 400.0 mg/kg/injection, schedule: Q04DX002 (ip), vehicle: saline): 0 of 3

Cc1oc2c(O)ccc(N=Nc3cccc([N+](=O)[O-])c3)c2c1C
survivor count (dose: 100.0 mg/kg/injection, schedule: Q01DX009 (ip), vehicle: Klucel (hydroxypropylcellulose) (HPC)): 6 of 6

CN(C)CCCN=Cc1cc([N+](=O)[O-])ccc1O.CN(C)CCCN=Cc1cc([N+](=O)[O-])ccc1O.[Ni+2]
survivor count (dose: 200.0 mg/kg/injection, schedule: Q04DX003 (ip), vehicle: saline with Tween-80): 3 of 6
survivor count (dose: 400.0 mg/kg/injection, schedule: Q04DX003 (ip), vehicle: saline with Tween-80): 0 of 6

c1ccc(CN2CCN(CC3CC3)CC2)cc1
survivor count (dose: 100.0 mg/kg/injection, schedule: Q04DX003 (ip), vehicle: carboxymethylcellulose (CMC)): 2 of 6
survivor count (dose: 200.0 mg/kg/injection, schedule: Q04DX003 (ip), vehicle: carboxymethylcellulose (CMC)): 0 of 6
survivor count (dose: 400.0 mg/kg/injection, schedule: Q04DX003 (ip), vehicle: carboxymethylcellulose (CMC)): 0 of 6

Nn1cnc2c(SCc3ccccc3)ncnc21
T/C (dose: 210.0 mg/kg/injection, schedule: Q01DX015 (ip), vehicle: carboxymethylcellulose (CMC)): 136 % of control
survivor count [4]: 0 of 4

CCN(CC)CCN1C(=O)c2cccc3cccc(c23)C1=O
T/C (dose: 52.0 mg/kg/injection, schedule: Q01DX009 (ip), vehicle: saline): 141 % of control
T/C (dose: 52.0 mg/kg/injection, schedule: Q03HX024 (ip), vehicle: saline): 136 % of control
T/C (dose: 143.0 mg/kg/injection, schedule: Q01DX009 (ip), vehicle: saline): 128 % of control
survivor count (dose: 143.0 mg/kg/injection, schedule: Q03HX024 (ip), vehicle: saline): 10 of 10
survivor count (dose: 215.0 mg/kg/injection, schedule: Q01DX009 (ip), vehicle: saline): 5 of 10
survivor count (dose: 215.0 mg/kg/injection, schedule: Q03HX024 (ip), vehicle: saline): 0 of 10
survivor count (dose: 234.0 mg/kg/injection, schedule: Q01DX001 (ip), vehicle: saline): 4 of 10
survivor count (dose: 234.0 mg/kg/injection, schedule: Q04DX003 (ip), vehicle: saline): 4 of 10
survivor count (dose: 322.0 mg/kg/injection, schedule: Q01DX009 (ip), vehicle: saline): 0 of 10
survivor count (dose: 322.0 mg/kg/injection, schedule: Q03HX024 (ip), vehicle: saline): 0 of 10
survivor count (dose: 348.0 mg/kg/injection, schedule: Q01DX001 (ip), vehicle: saline): 1 of 10
survivor count (dose: 348.0 mg/kg/injection, schedule: Q04DX003 (ip), vehicle: saline): 3 of 10
survivor count (dose: 520.0 mg/kg/injection, schedule: Q01DX001 (ip), vehicle: saline): 0 of 10 and 1 of 10
survivor count (dose: 520.0 mg/kg/injection, schedule: Q04DX003 (ip), vehicle: saline): 0 of 10 and 1 of 10
survivor count (dose: 960.0 mg/kg/injection, schedule: Q01DX001 (ip), vehicle: saline): 0 of 10
survivor count (dose: 960.0 mg/kg/injection, schedule: Q04DX003 (ip), vehicle: saline): 0 of 10
survivor count (dose: 1430.0 mg/kg/injection, schedule: Q01DX001 (ip), vehicle: saline): 0 of 10
survivor count (dose: 1430.0 mg/kg/injection, schedule: Q04DX003 (ip), vehicle: saline): 0 of 10
survivor count (dose: 2150.0 mg/kg/injection, schedule: Q01DX001 (ip), vehicle: saline): 0 of 10
survivor count (dose: 2150.0 mg/kg/injection, schedule: Q04DX003 (ip), vehicle: saline): 0 of 10
survivor count (dose: 3220.0 mg/kg/injection, schedule: Q01DX001 (ip), vehicle: saline): 0 of 10
survivor count (dose: 3220.0 mg/kg/injection, schedule: Q04DX003 (ip), vehicle: saline): 0 of 10

COc1c(C)c2c(c(Br)c1N)COCO2
survivor count [2]: 4 of 6

COc1cc(C(=O)NOCc2cc3c(cc2Cl)OCO3)cc(OC)c1OC
survivor count (dose: 100.0 mg/kg/injection, schedule: Q04DX003 (ip), vehicle: saline sonified): 6 of 6

CC[N+](C)(CC)CCC[n+]1c(-c2ccccc2)c2cc(N)ccc2c2ccc(N)cc21
survivor count (dose: 12.5 mg/kg/injection, schedule: Q01DX009 (ip), vehicle: saline): 2 of 6
survivor count (dose: 25.0 mg/kg/injection, schedule: Q04DX003 (ip), vehicle: water): 1 of 6
survivor count (dose: 100.0 mg/kg/injection, schedule: Q04DX003 (ip), vehicle: saline): 0 of 6
survivor count (dose: 200.0 mg/kg/injection, schedule: Q04DX003 (ip), vehicle: saline): 0 of 6
survivor count [1]: 0 of 6

CC(C)OC(C(=O)O)c1ccccc1 (centres undefined)
survivor count [4]: 0 of 4

COC(=O)c1ccccc1NS(=O)(=O)c1ccc(Cl)cc1
survivor count (dose: 200.0 mg/kg/injection, schedule: Q04DX002 (ip), vehicle: Klucel (hydroxypropylcellulose) (HPC)): 3 of 3

CCCCCCCCCCCCCCCCCCN1CNC(=O)NC1
survivor count [2]: 6 of 6

COc1cc(N)ccc1NC(=O)c1ccccc1
survivor count (dose: 50.0 mg/kg/injection, schedule: Q01DX001 (ip), vehicle: carboxymethylcellulose (CMC)): 0 of 4
survivor count (dose: 100.0 mg/kg/injection, schedule: Q01DX001 (ip), vehicle: carboxymethylcellulose (CMC)): 0 of 6
survivor count [3]: 0 of 6
survivor count [4]: 0 of 6

Cc1c2ccccc2c(C)c2c1cc(C(=O)O)c1ccccc12
T/C (dose: 100.0 mg/kg/injection, schedule: Q04DX002 (ip), vehicle: Klucel (hydroxypropylcellulose) (HPC)): 134 % of control

C=C1C(=O)OC2CC(C)CCC/C(CO)=C/C(OC(=O)/C(=C/CO)CO)C12 (centres undefined)
survivor count (dose: 30.0 mg/kg/injection, schedule: Q01DX001 (ip), vehicle: acetone): 1 of 6
